Assay results as given in PubChem BioAssay AID328 (DTP/NCI, 2004).
The list shows only some results of the screen, not a fair sample: it gathers tests that were run many times, whatever their T/C, doses with no T/C, and many T/C values between a quarter and a half above the control. Further doses and runs are listed elsewhere. T/C: endpoint of the treated group in % of that of the vehicle group. Some doses have a count of surviving animals in place of a T/C: the source files T/C as zero there, which appears to mark a toxic dose or a test without result, not a measured value. Some survivor counts are full or nearly so, which does not show that the dose was tolerated: the source hardly ever lists a survival T/C far under the control, and the zero likely stands for such cases as well. Survivors were counted at the toxicity check, usually on the fifth day, unless a day is given; later deaths do not show. Schedule codes are those of the source, taken here to give the interval after Q, in days (D) or hours (H), and the number of doses after X. Some structures stand for samples that the source files as different forms (salt, stereo form or complex); doses refer to the form tested. Some doses were run more than once; their values stand side by side, smallest first. For survival time, the PubChem record calls one and a half times the control and up active, and a quarter to a half above the control has no call in these data; cut-offs in other NCI protocols can differ. Some T/C values are followed by the survivors on the day toxicity was checked, most often the fifth; where none is given, no animal had died by that day.

Test system: BDF1 mice, P388 leukemia ip, median survival T/C
Test: NCI In Vivo Anticancer Drug Screen. Data for tumor model P388 Leukemia (intraperitoneal) in B6D2F1 (BDF1) mice
Conditions: T/C endpoint: median survival time, higher T/C = longer survival
Method in brief: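 Compound-treated tumour-bearing mice were compared with vehicle-treated controls. Survival was recorded, and the value is the treated-group measurement divided by the control-group measurement (T/C).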

[1] = dose: 400.0 mg/kg/injection, schedule: Q01DX001 (ip), vehicle: saline with Tween-80
[2] = dose: 3.0 mg/kg/injection, schedule: Q01DX009 (ip), vehicle: Klucel (hydroxypropylcellulose) (HPC)
[3] = dose: 100.0 mg/kg/injection, schedule: Q04DX003 (ip), vehicle: Klucel (hydroxypropylcellulose) (HPC)
[4] = dose: 200.0 mg/kg/injection, schedule: Q04DX003 (ip), vehicle: Klucel (hydroxypropylcellulose) (HPC)
[5] = dose: 400.0 mg/kg/injection, schedule: Q04DX003 (ip), vehicle: saline with Tween-80
[6] = dose: 400.0 mg/kg/injection, schedule: Q01DX009 (ip), vehicle: saline with Tween-80
[7] = dose: 400.0 mg/kg/injection, schedule: Q01DX001 (ip), vehicle: Klucel (hydroxypropylcellulose) (HPC)
[8] = dose: 50.0 mg/kg/injection, schedule: Q01DX009 (ip), vehicle: saline with Tween-80
[9] = dose: 100.0 mg/kg/injection, schedule: Q01DX009 (ip), vehicle: saline with Tween-80
[10] = dose: 200.0 mg/kg/injection, schedule: Q01DX009 (ip), vehicle: saline with Tween-80
[11] = dose: 100.0 mg/kg/injection, schedule: Q04DX003 (ip), vehicle: saline with Tween-80
[12] = dose: 100.0 mg/kg/injection, schedule: Q01DX009 (ip), vehicle: saline
[13] = dose: 200.0 mg/kg/injection, schedule: Q01DX009 (ip), vehicle: saline

Nc1ncc(C2OC(CO)C(O)C2O)c(=O)[nH]1 (configuration not stated)
T/C (dose: 16.0 mg/kg/injection, schedule: Q01DX005 (ip), vehicle: saline): 132 % of control | T/C (dose: 32.0 mg/kg/injection, schedule: Q01DX005 (ip), vehicle: saline): 133 and 141 % of control | T/C (dose: 64.0 mg/kg/injection, schedule: Q01DX005 (ip), vehicle: saline): 135 and 148 % of control | survivor count (dose: 128.0 mg/kg/injection, schedule: Q01DX005 (ip), vehicle: saline): 5 of 6 | survivor count (dose: 256.0 mg/kg/injection, schedule: Q01DX005 (ip), vehicle: saline): 2 of 6 and 5 of 6 | survivor count (dose: 512.0 mg/kg/injection, schedule: Q01DX005 (ip), vehicle: saline): 0 of 6

COC1=C(C)C(=O)C2=C(C1=O)C1C3CC4=C(C(=O)C(OC)=C(C)C4=O)C(CNC(=O)C(C)=O)N3C(C#N)C(C2)N1C (configuration not stated)
T/C (dose: 0.15 mg/kg/injection, schedule: Q01DX009 (ip), vehicle: Klucel (hydroxypropylcellulose) (HPC)): 136 % of control

COc1cc(NS(C)(=O)=O)ccc1Nc1c2ccccc2nc2c(C)cccc12
survivor count (dose: 5.0 mg/kg/injection, schedule: Q01DX009 (ip), vehicle: Klucel (hydroxypropylcellulose) (HPC)): 6 of 6 | survivor count (dose: 10.0 mg/kg/injection, schedule: Q01DX009 (ip), vehicle: Klucel (hydroxypropylcellulose) (HPC)): 6 of 6 | survivor count (dose: 20.0 mg/kg/injection, schedule: Q01DX009 (ip), vehicle: Klucel (hydroxypropylcellulose) (HPC)): 6 of 6 | survivor count (dose: 37.0 mg/kg/injection, schedule: Q04DX003 (ip), vehicle: gum acacia): 6 of 6

O=C1C=CC(=O)C(C2=CC(=O)C=CC2=O)=C1
survivor count (dose: 100.0 mg/kg/injection, schedule: Q01DX001 (ip), vehicle: saline with Tween-80): 0 of 6 | survivor count (dose: 200.0 mg/kg/injection, schedule: Q01DX001 (ip), vehicle: saline with Tween-80): 0 of 6 | survivor count [1]: 0 of 6

CCCCCCCCNc1cc2c3c(c1)CCCN3CCC2
T/C (dose: 0.75 mg/kg/injection, schedule: Q01DX009 (ip), vehicle: Klucel (hydroxypropylcellulose) (HPC)): 132 % of control | T/C (dose: 1.5 mg/kg/injection, schedule: Q01DX009 (ip), vehicle: Klucel (hydroxypropylcellulose) (HPC)): 135 % of control | T/C (dose: 2.0 mg/kg/injection, schedule: Q01DX009 (ip), vehicle: Klucel (hydroxypropylcellulose) (HPC)): 129 % of control | T/C [2]: 137 % of control | survivor count [2]: 6 of 6 | survivor count (dose: 4.5 mg/kg/injection, schedule: Q01DX009 (ip), vehicle: Klucel (hydroxypropylcellulose) (HPC)): 6 of 6 | survivor count (dose: 6.0 mg/kg/injection, schedule: Q01DX009 (ip), vehicle: Klucel (hydroxypropylcellulose) (HPC)): 6 of 6

CC(=O)Nc1nnc(/C=C/c2ccc([N+](=O)[O-])o2)s1
survivor count [3]: 6 of 6 | survivor count [4]: 5 of 6

CCOC(=O)C1=C(N)CC(c2ccc(C#N)cc2)NC1c1cccc(OC)c1O (configuration not stated)
survivor count [1]: 6 of 6

CC(=O)Nc1ccc2c(c1)OCO2
survivor count [5]: 3 of 6

O=C(Nc1cccc(S(=O)(=O)F)c1)c1ccc(COc2ccc([N+](=O)[O-])cc2Cl)cc1
survivor count [6]: 5 of 6

O=C1C=CC(=O)C(c2ccccc2)=C1
survivor count (dose: 100.0 mg/kg/injection, schedule: Q01DX001 (ip), vehicle: Klucel (hydroxypropylcellulose) (HPC)): 0 of 6 | survivor count (dose: 200.0 mg/kg/injection, schedule: Q01DX001 (ip), vehicle: Klucel (hydroxypropylcellulose) (HPC)): 0 of 6 | survivor count [7]: 0 of 6

Cn1c(=O)c2c(nc(CCCCc3nc4c(c(=O)n(C)c(=O)n4C)n3C)n2C)n(C)c1=O
survivor count [6]: 6 of 6

C[C@]12CC[C@@H]3c4ccc(O)cc4CC[C@H]3[C@@H]1C[C@@H](O)[C@@H]2O
survivor count (dose: 100.0 mg/kg/injection, schedule: Q01DX009 (ip), vehicle: Klucel (hydroxypropylcellulose) (HPC)): 6 of 6 | survivor count (dose: 200.0 mg/kg/injection, schedule: Q01DX009 (ip), vehicle: Klucel (hydroxypropylcellulose) (HPC)): 6 of 6 | survivor count (dose: 400.0 mg/kg/injection, schedule: Q01DX009 (ip), vehicle: Klucel (hydroxypropylcellulose) (HPC)): 6 of 6

OCC1C=CCC1 (configuration not stated)
survivor count [8]: 3 of 6 | survivor count [9]: 0 of 6 | survivor count [10]: 0 of 6

OCC1OC(n2cnc3cc(Cl)c(Cl)cc32)C(O)C1O (configuration not stated)
T/C [8]: 130 % of control | T/C [9]: 140 % of control [5 of 6 alive] | survivor count [10]: 5 of 6 | survivor count [6]: 0 of 6

CC(=O)O[C@@]1(C)C(=O)OCC2=CCN3CC[C@@H](OC(=O)[C@H](C)[C@]1(C)OC(C)=O)[C@@H]23
survivor count (dose: 100.0 mg/kg/injection, schedule: Q01DX010 (ip), vehicle: carboxymethylcellulose (CMC)): 3 of 6

COc1cc(C=NCCN=Cc2cc(OC)c(OC)c(OC)c2)cc(OC)c1OC
survivor count (dose: 50.0 mg/kg/injection, schedule: Q04DX003 (ip), vehicle: saline with Tween-80): 5 of 5 | survivor count [11]: 6 of 6

COc1ccccc1NC(=O)N(CCCl)N=O
survivor count [11]: 2 of 6 | survivor count (dose: 200.0 mg/kg/injection, schedule: Q04DX003 (ip), vehicle: saline with Tween-80): 0 of 6 | survivor count [5]: 0 of 6

OC(C1CO1)C(O)C1CO1 (configuration not stated)
survivor count (dose: 4.0 mg/kg/injection, schedule: Q01DX009 (ip), vehicle: saline): 5 of 6 | survivor count (dose: 5.9 mg/kg/injection, schedule: Q01DX009 (ip), vehicle: saline): 6 of 6 | survivor count (dose: 8.0 mg/kg/injection, schedule: Q01DX009 (ip), vehicle: saline): 3 of 6 | survivor count (dose: 9.0 mg/kg/injection, schedule: Q01DX009 (ip), vehicle: saline): 5 of 6 | survivor count (dose: 13.0 mg/kg/injection, schedule: Q01DX009 (ip), vehicle: saline): 6 of 6

COc1cccc(Sc2ccc([N+](=O)[O-])c3nonc23)c1
survivor count [8]: 5 of 7

COc1ccc(Cc2c3ccccc3cc[n+]2C)cc1Oc1ccc(Cc2c3ccccc3cc[n+]2C)cc1
survivor count (dose: 3.13 mg/kg/injection, schedule: Q01DX009 (ip), vehicle: saline): 2 of 6

Cc1onc(-c2ccccc2)c1C(=O)N1CCCN2C(=O)c3ccccc3C21 (configuration not stated)
survivor count [8]: 6 of 6 | survivor count [9]: 6 of 6

NCC[Se]CC(N)C(=O)O (configuration not stated)
survivor count (dose: 50.0 mg/kg/injection, schedule: Q01DX009 (ip), vehicle: saline): 5 of 6 | survivor count [12]: 0 of 6 | survivor count [13]: 0 of 6

C/C(=N\[N+](C)(C)C)c1cccc(C)n1
T/C (dose: 50.0 mg/kg/injection, schedule: Q04DX003 (ip), vehicle: saline): 133 % of control | survivor count [12]: 5 of 6

ClCc1ccc2ccccc2n1
T/C [10]: 145 % of control

N=c1c2ccccc2nc2n1CCCCCCC2
survivor count [3]: 0 of 6 | survivor count [4]: 0 of 6 | survivor count (dose: 400.0 mg/kg/injection, schedule: Q04DX003 (ip), vehicle: Klucel (hydroxypropylcellulose) (HPC)): 0 of 6

CSc1ccc(NC(=O)N(CCCl)N=O)cc1
T/C (dose: 25.0 mg/kg/injection, schedule: Q04DX003 (ip), vehicle: saline sonified): 127 and 131 % of control

CCCCCC(C(C)=O)(C1=NC(C)(C)CC(C)O1)c1ccccc1 (configuration not stated)
survivor count (dose: 400.0 mg/kg/injection, schedule: Q04DX003 (ip), vehicle: saline): 0 of 6

CN1CCC(C(O)c2ccccc2)CC1 (configuration not stated)
survivor count [7]: 1 of 6

Cc1ccc(C(=O)O)cc1S(=O)(=O)F
T/C [6]: 126 % of control [5 of 6 alive] | survivor count (dose: 600.0 mg/kg/injection, schedule: Q01DX009 (ip), vehicle: saline with Tween-80): 3 of 6

COC(C)C(NC(=O)C1CCCN1C)C1OC(SCCOC(=O)c2ccccc2O)C(O)C(O)C1O (configuration not stated)
T/C [13]: 126 % of control [2 of 3 alive] | survivor count [13]: 4 of 6 | survivor count (dose: 400.0 mg/kg/injection, schedule: Q01DX009 (ip), vehicle: saline): 0 of 3
